PubChem BioAssay AID493014 (National Center for Advancing Translational Sciences (NCATS), 2011)
The list shows a part of the results. The main result of the screen is listed elsewhere. These columns were measured beside it and carry no call. Compounds called inactive in the main read-out are mostly missing here. Words in brackets tell the shape of the fitted curve; partial curves, single points and poor fits give uncertain potencies.

Experiment: qHTS Assay to Find Inhibitors of Chronic Active B-Cell Receptor Signaling
Details: ABC-DLBCL IkBa-CBG/CBR reporter, luminescence ratio (green luciferase fused to IkBa over red control in TMD8 lymphoma cells), 4 h
How it was run: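 Cell line TMD8 (human ABC DLBCL), stably expressing tet-inducible CBG68-IkBa fusion and CBR; IMDM/0.5% FBS; cpd up to 46 uM; dox induction, 4 h, 37C/5% CO2; dual luminescence; green/red ratio; MG132 control.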

[1] = measured here: CBR red luminescence, cell number

Compound | AC50 [1] | AC50 (measured here: IkBa-CBG green luminescence)
Cn1cc(CNC(=O)C2CCC(=O)N(Cc3cccc(C(F)(F)F)c3)C2)cn1 (stereo not drawn) | 3.16 µM [falling, partial curve, poor fit] | –
Clc1ccc(OCCCCCN2CCCC2)c(Br)c1 | 14.6 µM [falling, partial curve, poor fit] | –
Nc1c(C(=O)Nc2ccccc2F)sc2nc(-c3cccnc3)ccc12 | 1.41 µM [falling, partial curve, poor fit] | –
COc1ccc(NC(=O)/C=C/c2ccc(Br)o2)cn1 | 10 µM [falling, partial curve, poor fit] | –
CCCC(=O)N1CCN(c2ccc(NC(=O)c3cc4ccccc4o3)cc2Cl)CC1 | 4.11 µM [falling, full curve] | 16.4 µM [rising, partial curve, poor fit]
CC(=O)Nc1ccc(NC(=O)C(C)OC(=O)c2cc(S(=O)(=O)N3CCOCC3)ccc2Cl)cc1 (stereo not drawn) | 6.51 µM [rising, partial curve, poor fit] | –
c1ccc2c(c1)CCN(c1nc3cc4c(cc3s1)OCCO4)C2 | 10 µM [falling, partial curve, poor fit] | –
COc1ccc(Cn2nnnc2C(c2ccccc2Cl)N2CCC(C(N)=O)CC2)cc1 (stereo not drawn) | 5.62 µM [rising, single point] | –
COc1ccc(Cl)cc1NC(=O)c1c(NCc2cccnc2)sc2c1CCC(C)C2 (stereo not drawn) | 10 µM [falling, partial curve] | –
O=C(NCc1ccc(F)cc1)c1cc2c(s1)CS(=O)(=O)C2 | 17.8 µM [falling, partial curve, poor fit] | –
COC(=O)C1=C(C)N(CCc2ccc(OC)c(OC)c2)C(=O)C1 | 5.17 µM [falling, partial curve, poor fit] | –
CN(C)C(CNC(=O)CCc1nc2cc(Cl)ccc2n(Cc2ccccc2)c1=O)c1ccccc1 (stereo not drawn) | 29.1 µM [falling, single point] | –
CN(C)c1ccc(/C=N\NC(=O)CC#N)cc1 | 8.91 µM [falling, partial curve, poor fit] | –
Cc1cc(CNC(=O)COc2ccccc2)c2ccccc2n1 | 3.16 µM [rising, partial curve] | –
Nc1c(NCCC2=CCCCC2)c(=O)[nH]c(=O)n1Cc1ccccc1 | 11.2 µM [falling, partial curve, poor fit] | –
CN(C)S(=O)(=O)c1ccc(C(=O)OCC2CCCO2)cc1 (stereo not drawn) | 35.5 µM [rising, single point] | –
COC(=O)n1ccc(C(=O)Nc2ccccc2F)n1 | 35.5 µM [falling, single point] | –

Another view of some results above:

| Compound | AC50 [1] | AC50 (measured here: IkBa-CBG green luminescence) |
| --- | --- | --- |
| Cc1cc(CNC(=O)COc2ccccc2)c2ccccc2n1 | 3.16 µM [rising, partial curve] | – |
| Nc1c(NCCC2=CCCCC2)c(=O)[nH]c(=O)n1Cc1ccccc1 | 11.2 µM [falling, partial curve, poor fit] | – |
